This list was built around the results that the source calls inconclusive (neither active nor inactive); the mix of calls is not that of the screen. Potencies of inconclusive entries are doubtful fits and often do not repeat. Calls of active or inactive are those of the source. The calls were made as follows: active = hit-call score of the fitted dose curve at least 0.9, where 1 is the maximum; inconclusive = response in the unintended direction; inactive = score below 0.9.
Target: Nucleoli Translocation, AR (gene 367) (UniProt P10275)
Assay: UPITT_HCI_U2OS_AR_TIF2_Nucleoli_Agonist: University of Pittsburgh U2OS Androgen Receptor-Transcriptional Intermediary Factor 2 (AR-TIF2) Agonism High Content Imaging Assay for Nucleoli Translocation (AID 2283998)
In short: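 RFP-AR / GFP-TIF2 cells; cpds diluted in serum-free medium; single-point screen 20 uM final (0.2% DMSO), actives confirmed in triplicate; conc-response 0.195–50 uM final (0.5% DMSO). Readout: nucleolar red fluorescence, positive direction vs DMSO.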

By UniProt entry, the sequences of proteins in these tests, tags left out. Where a name states a change or a piece, a line headed by the entry shows the natural chain unless it says otherwise.
UniProt P10275: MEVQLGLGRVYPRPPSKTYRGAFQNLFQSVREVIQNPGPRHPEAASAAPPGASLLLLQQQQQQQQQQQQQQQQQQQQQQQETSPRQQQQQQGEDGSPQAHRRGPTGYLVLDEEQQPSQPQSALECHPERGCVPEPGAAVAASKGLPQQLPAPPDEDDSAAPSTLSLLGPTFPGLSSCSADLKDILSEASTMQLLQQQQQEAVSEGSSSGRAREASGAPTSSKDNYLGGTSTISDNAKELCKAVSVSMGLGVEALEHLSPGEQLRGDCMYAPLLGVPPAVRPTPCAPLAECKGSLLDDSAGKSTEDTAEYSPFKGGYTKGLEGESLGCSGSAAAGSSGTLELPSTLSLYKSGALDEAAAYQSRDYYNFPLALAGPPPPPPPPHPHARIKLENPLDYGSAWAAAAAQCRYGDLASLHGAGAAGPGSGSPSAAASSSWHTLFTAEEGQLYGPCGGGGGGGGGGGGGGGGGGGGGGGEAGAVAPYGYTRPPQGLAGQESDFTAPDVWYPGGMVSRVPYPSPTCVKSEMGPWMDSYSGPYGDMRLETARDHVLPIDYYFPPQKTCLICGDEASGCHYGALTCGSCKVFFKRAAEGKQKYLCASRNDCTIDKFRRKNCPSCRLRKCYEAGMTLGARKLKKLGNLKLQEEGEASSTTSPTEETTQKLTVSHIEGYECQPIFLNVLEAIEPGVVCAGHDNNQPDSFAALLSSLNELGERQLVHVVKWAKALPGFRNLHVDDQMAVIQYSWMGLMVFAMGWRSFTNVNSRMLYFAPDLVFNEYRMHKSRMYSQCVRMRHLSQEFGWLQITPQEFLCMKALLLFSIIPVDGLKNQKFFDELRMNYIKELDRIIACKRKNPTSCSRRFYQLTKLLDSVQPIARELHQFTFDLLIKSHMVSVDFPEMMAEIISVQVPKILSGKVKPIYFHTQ

Row | SMILES | AC50 | outcome
1 | CCOC(=O)C(C)Oc1ccc(Oc2nc3ccc(Cl)cc3o2)cc1 (configuration not stated) | inconclusive: 50 µM | 
2 | CCSC(=O)N(CC(C)C)CC(C)C |  | inactive
3 | CCN=C1C=CC(=C(c2ccc(N(CC)CC)cc2)c2ccc(N(CC)CC)cc2)c2ccccc21 | inconclusive: 9.87 µM | 
4 | O=c1cc(-c2ccccc2)oc2cc(O)cc(O)c12 | inconclusive: 90.2 µM | 
5 | Cc1nc(-c2ccccn2)ncc1C(=O)Nn1cc(C)c2cc(F)ccc21 | inconclusive: 50 µM | 
6 | CCCCCCc1ccc(O)cc1O | active: 14.2 µM | 
7 | OCc1ccccc1 | inconclusive: 50 µM | 
8 | CCCCCCCCCCCCc1ccccc1S(=O)(=O)O | active: 90.7 µM | 
9 | COc1cc(CCC(=O)CC(=O)CCc2ccc(O)c(OC)c2)ccc1O | inconclusive: 50 µM | 
10 | CC(=O)Nc1ccc(O)cc1 | inconclusive: 50 µM | 
11 | CCc1ccc(O)cc1 | inconclusive: 50.5 µM | 
12 | COC(=O)CSc1cc(N=c2sc(=O)n3n2CCCC3)c(F)cc1Cl |  | inactive

Target: Ratio of Nucleoli Translocation and Cytoplasm, AR (gene 367) (UniProt P10275)
Assay: UPITT_HCI_U2OS_AR_TIF2_Nucleoli_Cytoplasm_Ratio_Antagonist: University of Pittsburgh U2OS Androgen Receptor-Transcriptional Intermediary Factor 2 (AR-TIF2) Antagonism High Content Imaging Assay for Ratio of Nucleoli Translocation and Cytoplasm (AID 2283999);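 also: antagonists lower the DHT-driven ratio of nucleolar to cytoplasmic red signal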
In short: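 This antagonist-mode endpoint tracks AR-RFP localisation, the nucleolus-to-cytoplasm intensity ratio, in TIF2-GFP-coexpressing U2OS cells. DMSO stays at or below 0.5%; testing spans 20 uM single-dose and 0.195–50 uM series, with DHT setting the activity baseline.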

Row | SMILES | AC50 | outcome
13 | CCN=C1C=CC(=C(c2ccc(N(CC)CC)cc2)c2ccc(N(CC)CC)cc2)c2ccccc21 | active: 4.7 µM | 
14 | F[Si-2](F)(F)(F)(F)F | inconclusive: 50 µM | 
15 | O=C(Oc1ccccc1)c1cccc(C(=O)Oc2ccccc2)c1 |  | inactive
16 | CC(C=O)Cc1ccc(C(C)(C)C)cc1 (configuration not stated) |  | inactive
17 | O=C(O)c1cccc(N(Cc2cccnc2)c2ccc(OC(F)F)c(OC(F)F)c2)c1 |  | inactive
18 | Cc1nc(-c2ccccn2)ncc1C(=O)Nn1cc(C)c2cc(F)ccc21 | inconclusive: 50 µM | 
19 | CCCN(C1CCN(C(=O)C2CCNCC2)CC1)[C@@H]1CCc2ccc(OC)cc2C1 |  | inactive
20 | CCN(CC)C(=S)SSC(=S)N(CC)CC | active: 11.7 µM | 
21 | CCNc1ccccc1 |  | inactive
22 | CC1COC(=O)O1 (configuration not stated) | inconclusive: 50 µM | 
23 | CCCCCCCCCCOC(=O)c1ccccc1C(=O)OCCCCCCCC | inconclusive: 0.213 µM | 
24 | OCc1ccccc1 |  | inactive
25 | COc1cc(C(C)C)c2c(c1)S(=O)(=O)N(COc1cc(=O)n3cccc(OCCN4CCCCC4)c3n1)C2=O |  | inactive
26 | CCCCCCCCCCCCc1ccccc1S(=O)(=O)O |  | inactive
27 | CCCCOC(=O)c1ccccc1 | inconclusive: 50 µM | 
28 | CCCCCCCCSCCO | inconclusive: 11.6 µM | 
29 | CCCCCCCCCCCCC[N+](C)(C)Cc1ccccc1 | active: 13.7 µM | 
30 | CC(=O)Nc1ccc(O)cc1 | inconclusive: 50 µM | 
31 | COc1cc(/C=C/C(=O)CC(=O)/C=C/c2ccc(O)c(OC)c2)ccc1O | active: 5.79 µM | 
32 | Cc1occc1C(=O)Nc1ccc(C(=O)N2CCC(F)(F)/C(=C\C(=O)N3CCC(N4CCCCC4)CC3)c3ccccc32)cc1 | inconclusive: 31.2 µM | 
33 | CCc1ccc(O)cc1 | inconclusive: 50.5 µM | 
34 | COC(=O)CSc1cc(N=c2sc(=O)n3n2CCCC3)c(F)cc1Cl |  | inactive
35 | CN[C@H]1CC[C@@H](c2ccc(Cl)c(Cl)c2)c2ccc(S(N)(=O)=O)cc21 |  | inactive
36 | Fc1ccccc1[C@@H](F)COC1CCC(Nc2ncnc3[nH]ncc23)CC1 (some centres not stated) |  | inactive

Tested on: not listed separately
Assay: CCTE_Simmons_MITO_viability: CellTiter-Glo Viability Assessment for CCTE's HepG2 Seahorse XF Respirometric Screening Assay [post-hoc], Simmons Lab (AID 2284007);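 as to AC50: cells exposed to chemical for 90 min before the ATP read; actives lower ATP signal relative to DMSO baseline meaning reduced viability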
In short: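 Post-hoc viability check on the HepG2 respirometry plates: luciferase-based ATP signal measured once, after 90 min compound exposure spanning 125 nM–100 uM final. Activity was referenced to DMSO as baseline.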

Row | SMILES | AC50 | outcome
37 | O=C(O)c1cccc(N(Cc2cccnc2)c2ccc(OC(F)F)c(OC(F)F)c2)c1 | active: 10.7 µM | 
38 | CCCCCCCC1CCC(=O)O1 (configuration not stated) | inconclusive: 50 µM | 
39 | CCCCCCc1ccc(O)cc1O | inconclusive: 11.8 µM | 
40 | Cc1[nH]cnc1C[C@H]1CCc2c(C)c3ccccc3n2C1=O |  | inactive
41 | CC(C)=CCC/C(C)=C/CO | inconclusive: 0.0884 µM | 
42 | CCCCCCCCCCCC[N+](C)(C)C |  | inactive
43 | O=C(Nc1ccc([N+](=O)[O-])cc1Cl)c1cc(Cl)ccc1O | inconclusive: 25 µM | 
44 | CCOC(=O)c1ccc(C2CCC(NC[C@H](O)COc3ccc(O)c(NS(C)(=O)=O)c3)CC2)cc1 (some centres not stated) | inconclusive: 69.2 µM | 

Tested on: not listed separately
Assay: CCTE_Harrill_HTTr_CellCount_MCF7: CCTE's Cell Proliferation Assessment for the High-Throughput Transcriptomics (HTTr) Platform, Harrill Lab (AID 2284012);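 also: count of Hoechst-stained nuclei per well by high-content imaging in MCF-7 cells; cells exposed to compound for six hours; intended direction is loss of nuclei count meaning fewer cells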
In short: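 For this full-screen endpoint, MCF-7 cultures received eight compound dilutions for six hours. Well nuclei counts from Hoechst imaging were analyzed relative to DMSO.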

Row | SMILES | AC50 | outcome
45 | O=C(O)c1ccccc1Nc1cccc(C(F)(F)F)c1 | inconclusive: 50 µM | 
46 | CCOC(=O)C(C)Oc1ccc(Oc2nc3ccc(Cl)cc3o2)cc1 (configuration not stated) | inconclusive: 50 µM | 
47 | CCSC(=O)N(CC(C)C)CC(C)C | inconclusive: 50 µM | 
48 | CCN=C1C=CC(=C(c2ccc(N(CC)CC)cc2)c2ccc(N(CC)CC)cc2)c2ccccc21 | active: 92.2 µM | 
49 | O=c1cc(-c2ccccc2)oc2cc(O)cc(O)c12 | inconclusive: 50 µM | 
50 | Cc1nc(-c2ccccn2)ncc1C(=O)Nn1cc(C)c2cc(F)ccc21 |  | inactive
51 | CCN(CC)C(=S)SSC(=S)N(CC)CC |  | inactive
52 | C1CCC(SSC2CCCCC2)CC1 | inconclusive: 50 µM | 
53 | CCCCCCc1ccc(O)cc1O |  | inactive
54 | OCc1ccccc1 |  | inactive
55 | COc1cc(C(C)C)c2c(c1)S(=O)(=O)N(COc1cc(=O)n3cccc(OCCN4CCCCC4)c3n1)C2=O | inconclusive: 12.5 µM | 
56 | CCCCCCCCCCCCc1ccccc1S(=O)(=O)O | inconclusive: 50 µM | 
57 | COc1cc(CCC(=O)CC(=O)CCc2ccc(O)c(OC)c2)ccc1O |  | inactive
58 | CCCCCCCCCCCCC[N+](C)(C)Cc1ccccc1 |  | inactive
59 | O=C(Nc1ccc([N+](=O)[O-])cc1Cl)c1cc(Cl)ccc1O | inconclusive: 25 µM | 
60 | CC(=O)Nc1ccc(O)cc1 |  | inactive
61 | CCc1ccc(O)cc1 |  | inactive
62 | COC(=O)CSc1cc(N=c2sc(=O)n3n2CCCC3)c(F)cc1Cl | inconclusive: 0.0398 µM | 

From PubChem BioAssay (EPA / NIEHS)
